Experimental data taken from publication doi:10.1101/2025.07.23.666269 (bioRxiv, 2025).
These are yes or no findings as the source states them, for the method shown. For some assays here: Binding seen in cells or lysates may run through a third protein. Some results given as binding are weak or reduced against the parent protein; the word gives no strength.

How the values were obtained:
[1] = target: T1, major capsid protein P1 of cystovirus ɸ6 (in virion-derived particles) (cystovirus ɸ6) (UniProt P11126); test: co-sedimentation
T1 sequence: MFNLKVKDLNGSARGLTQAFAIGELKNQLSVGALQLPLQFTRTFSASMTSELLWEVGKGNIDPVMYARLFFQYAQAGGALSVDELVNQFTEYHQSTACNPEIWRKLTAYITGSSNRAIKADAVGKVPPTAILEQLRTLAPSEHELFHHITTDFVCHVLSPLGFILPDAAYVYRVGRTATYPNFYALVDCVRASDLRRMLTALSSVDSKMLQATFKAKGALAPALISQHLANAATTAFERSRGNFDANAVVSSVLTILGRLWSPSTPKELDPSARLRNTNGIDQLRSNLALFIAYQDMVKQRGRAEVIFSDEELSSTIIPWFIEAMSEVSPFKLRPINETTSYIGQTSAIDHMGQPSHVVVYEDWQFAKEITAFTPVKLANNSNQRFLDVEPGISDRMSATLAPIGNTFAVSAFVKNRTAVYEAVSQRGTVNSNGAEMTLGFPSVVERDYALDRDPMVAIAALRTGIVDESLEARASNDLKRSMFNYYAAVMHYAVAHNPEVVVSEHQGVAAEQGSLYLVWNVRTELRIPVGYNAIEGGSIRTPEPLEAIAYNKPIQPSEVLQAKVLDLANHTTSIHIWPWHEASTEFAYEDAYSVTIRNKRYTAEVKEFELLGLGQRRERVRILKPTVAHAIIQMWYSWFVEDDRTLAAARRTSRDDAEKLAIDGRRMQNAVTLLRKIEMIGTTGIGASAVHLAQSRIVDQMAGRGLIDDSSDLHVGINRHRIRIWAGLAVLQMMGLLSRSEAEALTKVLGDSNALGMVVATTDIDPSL

[2] = target: T1, major capsid protein P1 of cystovirus ɸ6 (in virion-derived particles) (cystovirus ɸ6); test: cryo-EM structure

B1: outer layer protein P8 of cystovirus ɸ6 (in virion-derived particles) (natural protein)
chain: MLLPVVARAAVPAIESAIAATPGLVSRIAAAIGSKVSPSAILAAVKSNPVVAGLTLAQIGSTGYDAYQQLLENHPEVAEMLKDLSFKADEIQPDFIGNLGQYREELELVEDAARFVGGMSNLIRLRQALELDIKYYGLKMQLNDMGYRS
- binding [1]: binds
- binding [2]: binds
